Literature values, collected in patent US20250195393A1, “COSMETIC COMPOSITION COMPRISING SKIN ACTIVE AGENT” (priority 2023, published 2025).
At least one compound was matched to its structure with a doubt left.

Conditions: Hansen Solubility Parameters; cited from earlier work

Compound: OCCOc1ccccc1 [Phenoxyethanol]
- D (dispersion component): 17.8 MPa^0.5
- H (hydrogen bonding component): 14.3 MPa^0.5
- P (polar component): 5.7 MPa^0.5
